Test results reported in PubChem BioAssay AID1487 (National Center for Advancing Translational Sciences (NCATS), 2009).
The list shows a part of the results. Shown are side measurements of this screen, not its main read-out; they come without a call. The list favours compounds with an active or inconclusive main result. The note in brackets gives the kind of curve behind each potency; many fits are weak.

Assay: qHTS Assay for Modulators of Lamin A Splicing
Details: HeLa LMNA splicing GFP/RFP minigene ratio, 48 h
Method in brief: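 S3 HeLa cells stably expressing lamin A-EGFP splicing minigene plus DsRed2, 600 cells/well, 48 h compound exposure at 37C. Laser-scanning cytometry; analysed as GFP (500-530 nm)/RFP (575-640 nm) total intensity ratio; 0.5% DMSO vehicle.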

[1] = measured here: RFP viability control channel
[2] = measured here: GFP splicing reporter channel

## COC(=O)C1=C(C)N(C)C(=O)NC1c1ccc(O)c(Cl)c1 (configuration not stated)
[1]
  AC50: 1.26 µM [falling, full curve]

## CCOc1cc(C)c(S(=O)(=O)NC2CCCCC2)cc1C
[1]
  AC50: 20 µM [rising, single point]

## COCCNC(=O)CSc1nc2cc3c(cc2c(=O)n1Cc1ccc(C(=O)NCCc2ccc(OC)c(OC)c2)cc1)OCO3
[2]
  AC50: 15.8 µM [falling, single point]
[1]
  AC50: 35.5 µM [falling, single point]

## CC1C/C(=N\Nc2ccc(S(N)(=O)=O)cc2[N+](=O)[O-])CC(C)(C)C1 (configuration not stated)
[1]
  AC50: 35.5 µM [rising, single point]

## CCN(CC)S(=O)(=O)c1ccc(C)c(NC(=S)Nc2cccc(S(=O)(=O)N3CCCCCC3)c2)c1
[1]
  AC50: 14.1 µM [rising, partial curve]

## Brc1cccc(/C=N/Nc2nc(N3CCCCC3)nc(N3CCCCC3)n2)c1
[2]
  AC50: 14.1 µM [rising, partial curve]

## O=C(Nc1nc(-c2cccs2)c(C(=O)C(F)(F)F)s1)c1ccco1
[1]
  AC50: 0.00794 µM [falling, full curve]

## Cc1ccc(C(=O)n2c(-c3ccccc3)cnc2SCC(=O)Nc2ccc(C)cc2C)cc1
[2]
  AC50: 22.4 µM [rising, single point]
[1]
  AC50: 20 µM [rising, partial curve, poor fit]

## Cc1ccc(C(=O)/C=C/Nc2ccccc2C(N)=O)o1
[2]
  AC50: 35.5 µM [rising, single point]

## O=C(COc1ccc2ccccc2c1)NNC(=O)Cc1cccc2ccccc12
[1]
  AC50: 20 µM [falling, single point]

## COc1ccc(C(=O)NCCNc2ccccc2[N+](=O)[O-])cc1
[2]
  AC50: 8.91 µM [falling, partial curve, poor fit]
[1]
  AC50: 0.158 µM [falling, full curve, poor fit]

## O=C1Nc2c(Br)cc(Br)c3cccc1c23
[2]
  AC50: 0.00631 µM [falling, full curve, poor fit]

## CCc1nc(Nc2ccc3c(c2)OCCO3)c2oc3ccccc3c2n1
[2]
  AC50: 35.5 µM [rising, single point]
[1]
  AC50: 35.5 µM [rising, single point]

## CC1=NN(c2ccccc2)C(=O)/C1=C/C=C/c1ccccc1
[1]
  AC50: 17.8 µM [rising, partial curve, poor fit]

## Cc1nnc(SCC(=O)NC2CCS(=O)(=O)C2)n1Cc1ccccc1 (configuration not stated)
[2]
  AC50: 0.0501 µM [falling, full curve, poor fit]

## CN1/C(=C\C(=O)C[n+]2ccc3ccccc3c2)C(C)(C)c2ccccc21
[1]
  AC50: 5.62 µM [rising, single point]

## Cc1ccc(N2CCN(C(=O)c3c(C)oc4ncnc(N5CCOCC5)c34)CC2)c(C)c1
[1]
  AC50: 15.8 µM [rising, partial curve]

## CCOC(=O)CN1C(=O)C(O)(C2CCc3ccccc3C2=O)c2ccccc21 (configuration not stated)
[1]
  AC50: 25.1 µM [falling, partial curve, poor fit]

## CCCSc1nc2cc(OC)c(OC)cc2c(=N)n1CCCN1CCOCC1
[1]
  AC50: 1.26 µM [rising, full curve, poor fit]

## Cc1ccc(C(=O)Nc2nnc(S(=O)(=O)N3CCN(c4ccc(F)cc4)CC3)s2)cc1
[2]
  AC50: 0.126 µM [falling, full curve, poor fit]

## Cc1ccc2scc(N3CCCCC3)c(=O)c2c1
[2]
  AC50: 3.98 µM [rising, full curve, poor fit]

## O=Cc1ccc(OCC(=O)Nc2ccccc2C(F)(F)F)cc1
[2]
  AC50: 12.6 µM [rising, single point]

## CSc1nc(N)c2ncn([C@@H]3O[C@H](COP(=O)(O)OP(=O)(O)OP(=O)(O)O)[C@H](O)[C@H]3O)c2n1
[2]
  AC50: 0.2 µM [falling, full curve, poor fit]

## O=C(Cn1c(=O)oc2cc(S(=O)(=O)NCc3ccccc3)ccc21)NCc1ccccc1Cl
[2]
  AC50: 3.16 µM [falling, single point]
[1]
  AC50: 3.55 µM [falling, single point]

## Cc1ccc(N2CCN(C(=O)C3CCN(c4ncnc5c4nc4n5CCCCC4)CC3)CC2)c(C)c1
[1]
  AC50: 35.5 µM [falling, single point]

## COc1cc([C@H]2Oc3cc([C@H]4Oc5cc(O)cc(O)c5C(=O)[C@@H]4O)ccc3O[C@@H]2CO)ccc1O
[2]
  AC50: 0.00631 µM [falling, full curve, poor fit]
[1]
  AC50: 0.0178 µM [falling, full curve, poor fit]

## COc1ccc(NC(=O)CC2SC(=Nc3ccccc3)NC2=O)cc1 (configuration not stated)
[2]
  AC50: 8.91 µM [rising, single point]
[1]
  AC50: 3.55 µM [rising, single point]

## Cc1occc(=O)c1OCc1ccccc1
[1]
  AC50: 1.26 µM [falling, partial curve, poor fit]

## CCOCCCn1c(SC(C(=O)Nc2cc(C)ccc2C)c2ccccc2)nnc1-c1ccc(Cl)cc1 (configuration not stated)
[2]
  AC50: 35.5 µM [rising, single point]

## NC(N)=N[C@@H](CCC(=O)O)C(=O)O
[2]
  AC50: 17.8 µM [rising, partial curve, poor fit]
[1]
  AC50: 1.58 µM [rising, full curve, poor fit]

## Cc1ccccc1-c1nc(CS(=O)(=O)CC(=O)NCc2ccc3c(c2)OCO3)c(C)o1
[1]
  AC50: 11.2 µM [rising, single point]

## COC(=O)c1ccc(C(NC(=O)OCc2ccccc2)/C(C)=C/[C@@H](C)C(=O)NCc2ccc(-c3ccccc3)cc2)cc1 (some centres not stated)
[1]
  AC50: 31.6 µM [rising, single point]

## O=c1cc(NS(=O)(=O)c2ccccc2)nc(SCc2c(Cl)cccc2Cl)[nH]1
[1]
  AC50: 35.5 µM [rising, single point]

## CO/N=C(/C(=O)N[C@@H]1C(=O)N2C(C(=O)O)=C(COC(N)=O)CS[C@H]12)c1ccco1
[2]
  AC50: 5.62 µM [rising, partial curve, poor fit]

## CCCCOC(=O)CSc1nc2c(c(=O)[nH]c(=O)n2C)n1C/C=C(\C)Cl
[1]
  AC50: 2.24 µM [rising, full curve, poor fit]

## COc1cccc(NC(=O)c2sc3nc4n(c(=O)c3c2C)CCC4)c1
[2]
  AC50: 35.5 µM [falling, single point]

## CN(c1ccccc1)S(=O)(=O)c1ccc(C(=O)Nc2nnc(-c3ccco3)o2)cc1
[2]
  AC50: 0.0562 µM [rising, single point]

## CO[C@]1(NC(=O)Cc2cccs2)C(=O)N2C(C(=O)O)=C(COC(N)=O)CS[C@H]21
[2]
  AC50: 0.562 µM [falling, partial curve]

## O=S(=O)(CCSc1nc2ccccc2s1)c1nc2ccccc2s1
[2]
  AC50: 35.5 µM [falling, single point]
[1]
  AC50: 35.5 µM [falling, single point]

## CC(C)Oc1ccc2c(=O)c(-c3ccccc3)coc2c1
[2]
  AC50: 1.12 µM [falling, partial curve, poor fit]
[1]
  AC50: 7.08 µM [rising, partial curve]

## CCc1nnc(NC(=O)CSc2nc(C)c3c(c2C#N)CCCC3)s1
[2]
  AC50: 35.5 µM [rising, single point]
[1]
  AC50: 35.5 µM [rising, single point]

## CCN(CC(=O)N1CCN(c2ccccc2)CC1)S(=O)(=O)c1ccc(C)cc1
[2]
  AC50: 5.01 µM [rising, partial curve]
[1]
  AC50: 14.1 µM [rising, partial curve]

## COc1ccccc1C(N)=S
[2]
  AC50: 3.98 µM [rising, full curve, poor fit]

## O=C(NC1CC1)c1ccc(COc2ccc(F)cc2)o1
[1]
  AC50: 20 µM [rising, single point]

## CCC(=O)n1nc(NCc2ccccc2OC)nc1NCc1ccccc1OC
[1]
  AC50: 25.1 µM [rising, single point]

## S=C(NCCc1ccc(Cl)cc1)NC1CCCC1
[1]
  AC50: 10 µM [rising, partial curve]

## CCN(CC)CCNC(=S)Nc1ccc2nc(N3CCCC3)cc(C)c2c1
[1]
  AC50: 1.12 µM [rising, single point]

## COC1=CC(=O)C(O)=C/C1=C\C=C\c1ccccc1
[2]
  AC50: 3.55 µM [falling, full curve]
[1]
  AC50: 3.55 µM [falling, full curve]

## O=S(=O)(c1ccc(N2CCN(S(=O)(=O)c3ccc4c(c3)OCCO4)CC2)nc1)N1CCCC1
[1]
  AC50: 11.2 µM [rising, partial curve]

## O=C(COc1cccc(NC(=O)c2cccc([N+](=O)[O-])c2)c1)c1ccc(F)cc1
[2]
  AC50: 11.2 µM [rising, single point]
[1]
  AC50: 14.1 µM [rising, partial curve]

## COc1cc(/C=N/Nc2ncnc3sc4c(c23)CCC4)ccc1O
[2]
  AC50: 0.178 µM [falling, full curve]

## O=C(/C=C/c1cccnc1)c1ccc(NC(=O)c2cccc(Br)c2)cc1
[2]
  AC50: 35.5 µM [falling, single point]
[1]
  AC50: 28.2 µM [falling, single point]

## Cc1ccc2nc(NC(=O)CN(C)S(=O)(=O)c3ccc(Br)s3)sc2c1
[1]
  AC50: 31.6 µM [rising, single point]

## FC(F)(F)c1ccc(Oc2ccc3c(C(F)(F)F)cc(C(F)(F)F)nc3n2)cc1
[2]
  AC50: 0.00794 µM [falling, full curve, poor fit]
[1]
  AC50: 0.00891 µM [falling, full curve, poor fit]

## N#Cc1c(C(F)(F)F)cc(C2CC2)nc1N1CCCC1
[1]
  AC50: 14.1 µM [falling, partial curve, poor fit]

## COc1cc2cc(C(c3nnnn3C(C)(C)C)N3CCc4ccccc4C3)c(=O)[nH]c2cc1OC (configuration not stated)
[1]
  AC50: 22.4 µM [rising, single point]
